Taken from: PubChem BioAssay AID1259276 (Sanger Institute, 2017)
Purpose: 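Kinase knock-downs that reduce colorectal cancer cell viability alone or with anchor drugs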 (primary screen). System: human C2BBe1 colorectal cancer cells. Reagent: siRNA pool against human genes. Challenge: DMSO vehicle, or one anchor drug: BYL719 at 1 µM, cetuximab at 5 µg/ml, or trametinib at 10 nM; exposure length not stated. Detection: 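Viability after knock-down relative to non-targeting siRNA controls, averaged across replicates, given as ratio and control-derived robust z-score, with per-drug synergy scores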. Direction: viability robust z-score, siRNA alone: higher = more viable cells after knock-down. Call rule: 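Called essential when knock-down alone gives a viability robust z-score below -3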. Calls: active = essential (siRNA alone); inactive = no change (siRNA alone).
The deposit covers 794 reagents; this is an unselected part. In the full data, 24 (3%) were called active. 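Calls come only from the siRNA-alone arm; drug synergy scores do not affect them.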 Further read-outs or replicates are left out here. Reagent sequences are not shown. Not stated in the record: the amount of reagent, the time to read-out.

viability robust z-score, siRNA alone | outcome | gene symbol
0.472 | inactive | PACSIN1 (protein kinase C and casein kinase substrate in neurons 1)
-3.31 | active | DBF4 (DBF4-CDC7 kinase regulatory subunit)
0.472 | inactive | EFNB3 (ephrin B3)
0.472 | inactive | GRK6 (G protein-coupled receptor kinase 6)
-1.23 | inactive | PRKAG3 (protein kinase AMP-activated non-catalytic subunit gamma 3)
0.116 | inactive | MAP2K6 (mitogen-activated protein kinase kinase 6)
0.472 | inactive | CAMKK1 (calcium/calmodulin dependent protein kinase kinase 1)
0.472 | inactive | FES (FES proto-oncogene, tyrosine kinase)
-2.57 | inactive | STK24 (serine/threonine kinase 24)
0.472 | inactive | STRADB (STE20 related adaptor beta)
0.472 | inactive | MAP3K14 (mitogen-activated protein kinase kinase kinase 14)
-1.63 | inactive | ADK (adenosine kinase)
0.472 | inactive | MAPK15 (mitogen-activated protein kinase 15)
0.472 | inactive | TWF1 (twinfilin actin binding protein 1)
0.472 | inactive | BTK (Bruton tyrosine kinase)
0.472 | inactive | CDK11A (cyclin dependent kinase 11A)
0.472 | inactive | PGK1 (phosphoglycerate kinase 1)
0.472 | inactive | MSR1 (macrophage scavenger receptor 1)
0.472 | inactive | TTK (TTK protein kinase)
0.472 | inactive | MAP3K20 (mitogen-activated protein kinase kinase kinase 20)
0.472 | inactive | RAF1 (Raf-1 proto-oncogene, serine/threonine kinase)
0.472 | inactive | PRKCH (protein kinase C eta)
-1.05 | inactive | HK2 (hexokinase 2)
-3.19 | active | PLK4 (polo like kinase 4)
-3.32 | active | PLK1 (polo like kinase 1)
0.472 | inactive | TAOK2 (TAO kinase 2)
0.472 | inactive | NTN4 (netrin 4)
-2.17 | inactive | SF3B1 (splicing factor 3b subunit 1)
-3.15 | active | TAF1L (TATA-box binding protein associated factor 1 like)
-0.778 | inactive | CDKN1B (cyclin dependent kinase inhibitor 1B)
0.472 | inactive | ATR (ATR checkpoint kinase)
0.472 | inactive | DDR1 (discoidin domain receptor tyrosine kinase 1)
0.472 | inactive | MAP2K2 (mitogen-activated protein kinase kinase 2)
0.472 | inactive | ITPKB (inositol-trisphosphate 3-kinase B)

Reagents listed so far called active:
viability robust z-score, siRNA alone | outcome | gene symbol
-3.31 | active | DBF4 (DBF4-CDC7 kinase regulatory subunit)
-3.19 | active | PLK4 (polo like kinase 4)
-3.32 | active | PLK1 (polo like kinase 1)
-3.15 | active | TAF1L (TATA-box binding protein associated factor 1 like)
